The experiment addresses CDK1 (endogenous, MEF) (mouse (endogenous in MEFs)) (UniProt P11440). Nature of the experiment: affinity purification with mass spectrometry; anti-CDK1 immunoprecipitation from mitotic lysates of MEF and MEF Pin1-/- cells, silver staining, bands increased in MEFs excised and identified by mass spectrometry.

The chains behind the UniProt entries cited, without tags or fusion partners. Residues count along the entry.
UniProt P11440: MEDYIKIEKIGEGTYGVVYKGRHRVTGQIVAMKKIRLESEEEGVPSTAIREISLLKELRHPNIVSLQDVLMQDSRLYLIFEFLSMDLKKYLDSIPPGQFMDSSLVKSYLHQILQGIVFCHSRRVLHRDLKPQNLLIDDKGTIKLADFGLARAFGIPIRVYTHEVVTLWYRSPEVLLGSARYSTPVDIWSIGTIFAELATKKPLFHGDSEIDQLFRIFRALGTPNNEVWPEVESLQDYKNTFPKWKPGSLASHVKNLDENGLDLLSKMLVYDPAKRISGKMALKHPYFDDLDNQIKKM
UniProt P11276, residues 33-2477: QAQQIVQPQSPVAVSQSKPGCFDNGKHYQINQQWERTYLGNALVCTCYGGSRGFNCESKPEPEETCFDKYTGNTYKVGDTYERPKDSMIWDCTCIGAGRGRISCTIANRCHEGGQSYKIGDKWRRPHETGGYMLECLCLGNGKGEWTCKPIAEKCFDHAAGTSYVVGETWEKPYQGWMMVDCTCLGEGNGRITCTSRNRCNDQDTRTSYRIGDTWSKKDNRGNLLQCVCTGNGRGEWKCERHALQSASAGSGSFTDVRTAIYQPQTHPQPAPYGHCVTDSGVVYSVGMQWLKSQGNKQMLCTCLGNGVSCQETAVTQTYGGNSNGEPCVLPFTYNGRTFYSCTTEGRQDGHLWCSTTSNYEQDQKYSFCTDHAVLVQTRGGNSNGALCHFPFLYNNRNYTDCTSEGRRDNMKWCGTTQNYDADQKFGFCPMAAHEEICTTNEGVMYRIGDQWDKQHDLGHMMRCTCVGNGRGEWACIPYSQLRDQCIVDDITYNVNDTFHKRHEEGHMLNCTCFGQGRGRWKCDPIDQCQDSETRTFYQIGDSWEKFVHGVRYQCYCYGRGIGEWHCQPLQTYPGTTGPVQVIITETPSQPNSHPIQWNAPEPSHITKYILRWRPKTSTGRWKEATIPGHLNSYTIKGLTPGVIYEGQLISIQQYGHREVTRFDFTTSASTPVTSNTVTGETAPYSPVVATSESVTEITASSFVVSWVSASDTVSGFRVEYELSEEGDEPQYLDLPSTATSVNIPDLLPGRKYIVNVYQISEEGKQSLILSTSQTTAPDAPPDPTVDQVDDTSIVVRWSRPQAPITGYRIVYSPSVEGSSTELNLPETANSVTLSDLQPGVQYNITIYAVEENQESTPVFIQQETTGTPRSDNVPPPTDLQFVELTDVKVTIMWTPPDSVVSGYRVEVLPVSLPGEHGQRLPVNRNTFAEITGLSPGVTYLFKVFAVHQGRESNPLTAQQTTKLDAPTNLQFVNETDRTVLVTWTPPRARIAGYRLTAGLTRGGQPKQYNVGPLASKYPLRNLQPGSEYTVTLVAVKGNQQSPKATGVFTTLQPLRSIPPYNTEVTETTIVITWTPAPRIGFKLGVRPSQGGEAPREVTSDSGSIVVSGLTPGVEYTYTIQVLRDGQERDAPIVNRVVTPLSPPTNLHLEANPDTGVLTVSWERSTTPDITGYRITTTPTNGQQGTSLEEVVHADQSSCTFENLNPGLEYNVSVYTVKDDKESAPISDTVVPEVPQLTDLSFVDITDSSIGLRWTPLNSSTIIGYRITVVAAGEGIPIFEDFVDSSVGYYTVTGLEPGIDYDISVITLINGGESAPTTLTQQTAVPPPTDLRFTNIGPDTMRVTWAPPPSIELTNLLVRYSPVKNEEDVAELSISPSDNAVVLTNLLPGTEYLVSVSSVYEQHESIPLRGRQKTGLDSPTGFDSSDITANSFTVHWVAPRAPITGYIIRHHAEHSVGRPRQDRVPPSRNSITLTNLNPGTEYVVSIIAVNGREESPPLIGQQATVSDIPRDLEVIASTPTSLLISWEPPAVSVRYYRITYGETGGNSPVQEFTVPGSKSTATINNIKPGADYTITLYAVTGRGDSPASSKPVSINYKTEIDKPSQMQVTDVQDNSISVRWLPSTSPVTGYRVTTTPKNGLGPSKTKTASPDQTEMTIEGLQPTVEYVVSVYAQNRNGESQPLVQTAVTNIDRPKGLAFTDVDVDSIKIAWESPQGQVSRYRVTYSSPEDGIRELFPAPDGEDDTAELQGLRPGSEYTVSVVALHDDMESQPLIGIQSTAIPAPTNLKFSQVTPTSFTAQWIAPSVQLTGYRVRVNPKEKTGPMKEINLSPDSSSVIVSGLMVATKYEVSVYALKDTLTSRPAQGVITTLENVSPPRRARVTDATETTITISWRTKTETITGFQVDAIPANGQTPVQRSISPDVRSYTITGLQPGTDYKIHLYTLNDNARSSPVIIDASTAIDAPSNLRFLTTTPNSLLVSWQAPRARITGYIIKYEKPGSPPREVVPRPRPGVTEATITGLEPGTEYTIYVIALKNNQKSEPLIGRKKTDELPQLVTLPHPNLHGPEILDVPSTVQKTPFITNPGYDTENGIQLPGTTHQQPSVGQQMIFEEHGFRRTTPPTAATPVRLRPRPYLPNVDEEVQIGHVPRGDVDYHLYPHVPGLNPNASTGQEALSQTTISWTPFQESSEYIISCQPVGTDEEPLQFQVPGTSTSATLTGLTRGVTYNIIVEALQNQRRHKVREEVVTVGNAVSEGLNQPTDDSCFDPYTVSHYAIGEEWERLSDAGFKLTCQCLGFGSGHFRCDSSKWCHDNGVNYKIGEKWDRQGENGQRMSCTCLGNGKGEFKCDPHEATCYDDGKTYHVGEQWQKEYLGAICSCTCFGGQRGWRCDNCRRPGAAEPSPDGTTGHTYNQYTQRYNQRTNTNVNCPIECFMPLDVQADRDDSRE
UniProt Q61545: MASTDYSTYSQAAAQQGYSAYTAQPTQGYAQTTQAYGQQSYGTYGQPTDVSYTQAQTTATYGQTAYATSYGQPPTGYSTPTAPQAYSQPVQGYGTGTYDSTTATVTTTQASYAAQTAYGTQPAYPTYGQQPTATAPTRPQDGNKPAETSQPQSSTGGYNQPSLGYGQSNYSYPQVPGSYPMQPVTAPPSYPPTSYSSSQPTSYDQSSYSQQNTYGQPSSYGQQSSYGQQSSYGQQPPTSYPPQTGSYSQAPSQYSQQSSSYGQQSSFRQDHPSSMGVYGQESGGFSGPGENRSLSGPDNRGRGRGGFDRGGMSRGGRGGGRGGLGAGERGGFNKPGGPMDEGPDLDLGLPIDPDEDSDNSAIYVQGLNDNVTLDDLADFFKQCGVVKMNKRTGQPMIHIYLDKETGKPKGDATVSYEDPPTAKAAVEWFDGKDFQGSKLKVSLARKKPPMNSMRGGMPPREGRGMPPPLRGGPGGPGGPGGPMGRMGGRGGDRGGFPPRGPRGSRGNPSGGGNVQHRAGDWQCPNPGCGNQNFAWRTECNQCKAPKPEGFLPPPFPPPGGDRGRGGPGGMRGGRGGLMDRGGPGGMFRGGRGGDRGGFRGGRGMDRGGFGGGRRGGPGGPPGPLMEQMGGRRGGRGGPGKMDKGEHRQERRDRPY
UniProt Q9WV02: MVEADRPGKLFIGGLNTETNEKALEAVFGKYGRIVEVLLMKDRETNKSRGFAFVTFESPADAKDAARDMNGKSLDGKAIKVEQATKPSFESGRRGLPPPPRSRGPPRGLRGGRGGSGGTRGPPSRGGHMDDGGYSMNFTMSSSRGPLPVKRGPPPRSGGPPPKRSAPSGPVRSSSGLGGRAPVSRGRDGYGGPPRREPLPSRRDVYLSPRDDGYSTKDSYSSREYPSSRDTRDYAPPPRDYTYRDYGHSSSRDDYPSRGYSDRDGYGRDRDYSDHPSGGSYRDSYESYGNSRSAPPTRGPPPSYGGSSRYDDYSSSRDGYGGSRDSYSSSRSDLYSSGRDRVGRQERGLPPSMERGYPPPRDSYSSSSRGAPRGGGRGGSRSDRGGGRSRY
UniProt E9Q7G0: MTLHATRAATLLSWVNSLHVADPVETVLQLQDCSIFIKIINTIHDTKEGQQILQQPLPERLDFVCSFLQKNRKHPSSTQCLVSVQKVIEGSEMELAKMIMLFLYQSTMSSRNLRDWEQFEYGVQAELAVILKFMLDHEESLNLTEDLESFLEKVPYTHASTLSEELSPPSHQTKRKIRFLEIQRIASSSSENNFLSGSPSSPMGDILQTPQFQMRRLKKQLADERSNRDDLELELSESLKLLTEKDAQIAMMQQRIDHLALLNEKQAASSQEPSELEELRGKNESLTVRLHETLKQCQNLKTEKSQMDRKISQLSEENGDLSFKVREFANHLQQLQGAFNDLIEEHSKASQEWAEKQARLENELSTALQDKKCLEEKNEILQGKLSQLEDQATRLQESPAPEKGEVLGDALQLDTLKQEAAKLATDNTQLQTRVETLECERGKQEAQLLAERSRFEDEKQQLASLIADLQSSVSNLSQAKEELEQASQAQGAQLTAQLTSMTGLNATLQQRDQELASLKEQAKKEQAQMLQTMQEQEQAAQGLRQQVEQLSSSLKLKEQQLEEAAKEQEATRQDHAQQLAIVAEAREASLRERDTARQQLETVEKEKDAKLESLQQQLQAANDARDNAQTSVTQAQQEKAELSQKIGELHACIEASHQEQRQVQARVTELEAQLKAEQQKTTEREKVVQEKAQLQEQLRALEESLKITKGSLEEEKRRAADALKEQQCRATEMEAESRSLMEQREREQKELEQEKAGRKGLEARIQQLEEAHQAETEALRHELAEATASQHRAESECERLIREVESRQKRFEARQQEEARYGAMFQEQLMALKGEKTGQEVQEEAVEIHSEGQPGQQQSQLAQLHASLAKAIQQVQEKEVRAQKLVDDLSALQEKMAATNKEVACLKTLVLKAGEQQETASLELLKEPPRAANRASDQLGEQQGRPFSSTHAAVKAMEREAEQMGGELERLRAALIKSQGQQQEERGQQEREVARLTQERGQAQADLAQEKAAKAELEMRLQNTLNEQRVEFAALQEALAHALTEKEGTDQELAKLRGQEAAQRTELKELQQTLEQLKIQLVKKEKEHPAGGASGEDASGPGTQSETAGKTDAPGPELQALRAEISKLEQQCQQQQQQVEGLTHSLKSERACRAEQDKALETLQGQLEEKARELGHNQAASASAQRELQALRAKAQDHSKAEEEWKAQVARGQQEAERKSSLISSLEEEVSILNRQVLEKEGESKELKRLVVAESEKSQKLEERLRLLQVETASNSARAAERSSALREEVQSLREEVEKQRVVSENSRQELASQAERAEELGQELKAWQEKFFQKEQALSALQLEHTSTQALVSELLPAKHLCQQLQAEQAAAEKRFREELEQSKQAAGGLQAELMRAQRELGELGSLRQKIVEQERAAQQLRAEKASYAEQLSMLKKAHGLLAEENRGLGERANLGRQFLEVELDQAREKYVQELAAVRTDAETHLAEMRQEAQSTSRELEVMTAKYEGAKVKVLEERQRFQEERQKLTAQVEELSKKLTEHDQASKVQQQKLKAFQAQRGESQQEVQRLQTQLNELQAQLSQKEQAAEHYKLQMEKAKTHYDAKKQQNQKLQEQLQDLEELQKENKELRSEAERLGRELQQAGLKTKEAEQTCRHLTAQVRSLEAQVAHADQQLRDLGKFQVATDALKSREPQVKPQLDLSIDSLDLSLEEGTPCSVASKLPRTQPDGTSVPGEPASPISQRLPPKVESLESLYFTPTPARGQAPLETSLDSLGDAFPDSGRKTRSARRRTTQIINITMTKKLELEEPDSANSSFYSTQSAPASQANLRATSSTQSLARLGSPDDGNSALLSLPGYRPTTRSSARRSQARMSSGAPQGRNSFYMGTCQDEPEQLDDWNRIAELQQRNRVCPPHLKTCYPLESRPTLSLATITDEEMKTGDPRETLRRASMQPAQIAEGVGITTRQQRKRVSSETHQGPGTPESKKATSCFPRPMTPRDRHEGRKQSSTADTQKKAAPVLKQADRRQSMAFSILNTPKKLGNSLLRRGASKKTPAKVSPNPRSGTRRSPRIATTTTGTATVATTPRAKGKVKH

No constants are given. Whether binding was seen depends on the method and setting. Binding seen in cells or lysates may run through a third protein. A yes stands for co-enrichment or nearness to the bait. Other partners may have been found.

For the substance “fibronectin 1 (Fn1) (from UniProt P11276 33-2477)”, the binding entry is “binds”.

With “Ewing sarcoma breakpoint region 1 (EWSR1) (from UniProt Q61545 1-655)”, the binding result is “binds”.

Take “RNA-binding motif protein, X chromosome (RBMX) (from UniProt Q9WV02 1-391)”: the binding entry is “binds”.

Regarding “nuclear mitotic apparatus protein (NuMA) (from UniProt E9Q7G0 1-2094)”, the binding entry was “binds”.

Source of the values: article PMC4267622, “Pin1-mediated Sp1 phosphorylation by CDK1 increases Sp1 stability and decreases its DNA-binding activity during mitosis” (Nucleic Acids Research, 2014).
